Measurements reported in the supplement of paper PMC8104966.
The list shows a part of the results. Repeats in this data set agree poorly, so a single value says little.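 U2OS cells expressing ACE2 were combined with U2OS cells expressing full-length spike, and imaging quantified fusion as the fraction of nuclei displaying both cell types' fluorescent markers. Non-toxic compounds with a fusion z-score under -3, i.e., over three standard deviations below the plate's DMSO wells, are called inhibitory hits.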

These compounds were tested on U2OS ACE2 x SARS-CoV-2 spike co-culture (assay: cell-cell fusion (fraction fused) z-score vs plate DMSO control; higher = more fusion). Details: 30 µM; 5 h; toxicity class: non-toxic, passed QC.

Row | SMILES | cell-cell fusion (z-score)
1 | CC(C)(CO)C(O)C(=O)NCCCO (centres undefined) | inactive: 1.91
2 | CC(C)(CO)C(O)C(=O)NCCCO (centres undefined) [Panthenol] | inactive: 1.48
3 | Cn1cnc2c1c(=O)[nH]c(=O)n2C [Theobromine] | inactive: 2.34
4 | CCc1cncnc1N1CCN(Cc2nc3cc(C(F)(F)F)ccc3[nH]2)CC1 | inactive: -0.5
5 | CCCSc1nc(N[C@@H]2C[C@H]2c2ccc(F)c(F)c2)c2nnn([C@@H]3C[C@H](OCCO)[C@@H](O)[C@H]3O)c2n1 [Ticagrelor] | active: -16
6 | COc1cc(OC)c2c(=O)cc(-c3ccccc3)oc2c1 | inactive: 1.63
7 | O=C(O)[C@H](O)[C@@H](O)C(=O)O.c1cnc2cc3c(cc2n1)C1CNCC3C1 [Varenicline tartrate] | inactive: 2.21
8 | O=C(O)/C=C/C(=O)O.O=C(O)/C=C/C(=O)O.O=C(O)/C=C/C(=O)O.O=C1CCCN1CC#CCN1CCCC1.O=C1CCCN1CC#CCN1CCCC1 [Oxotremorine sesquifumarate salt] | inactive: 1.99
9 | COc1cc2c(c(OC)c1OC)-c1ccc(OC)c(=O)cc1[C@@H](NC(C)=O)CC2 | inactive: -2.82
10 | CNC(=NC#N)NCCSCc1nc[nH]c1C [Cimetidine] | inactive: 2.65
11 | CC(C)C[C@H]1C(=O)N2CCC[C@H]2[C@]2(O)O[C@](NC(=O)[C@@H]3C=C4c5cccc6[nH]c(Br)c(c56)C[C@H]4N(C)C3)(C(C)C)C(=O)N12.CS(=O)(=O)O [(+)-Bromocriptine methanesulfonate] | inactive: 3.01
12 | CC(C)c1c(C(=O)Nc2ccccc2)c(-c2ccccc2)c(-c2ccc(F)cc2)n1CC[C@@H](O)C[C@@H](O)CC(=O)[O-].CC(C)c1c(C(=O)Nc2ccccc2)c(-c2ccccc2)c(-c2ccc(F)cc2)n1CC[C@@H](O)C[C@@H](O)CC(=O)[O-].O.O.O.[Ca+2] [Atorvastatin calcium salt trihydrate.] | inactive: 1.29
13 | CC(C(=O)O)c1cccc(C(=O)c2ccccc2)c1 (centres undefined) | inactive: 2.17
14 | C#C[C@]1(O)CCC2C3CCC4=Cc5oncc5C[C@]4(C)C3CC[C@@]21C (some centres undefined) | inactive: 0.527
15 | COc1ccc(OC)c(C(O)CNC(=O)CN)c1.Cl (centres undefined) | inactive: 2.68
16 | Cl.O=C(N[C@H]1CN2CCC1CC2)c1ccc(Cl)cc1 | inactive: 2.3
17 | CNC[C@H](O)[C@@H](O)[C@H](O)[C@H](O)CO.Cc1c(Nc2ncccc2C(=O)O)cccc1C(F)(F)F | inactive: 1.52
18 | O=C1NS(=O)(=O)c2ccccc21 | inactive: 3.98
19 | CC(C)N(CCCCOCC(=O)NS(C)(=O)=O)c1cnc(-c2ccccc2)c(-c2ccccc2)n1 [Selexipag] | inactive: 0.642
20 | C[N+]1(C)[C@@H]2C[C@@H](OC(=O)[C@H](CO)c3ccccc3)C[C@H]1[C@@H]1O[C@@H]12.[Br-] [Methscopolamine] | inactive: 2.26

Shown with tabs: entries from further up
Row	SMILES	cell-cell fusion (z-score)
15	COc1ccc(OC)c(C(O)CNC(=O)CN)c1.Cl (centres undefined)	inactive: 2.68
16	Cl.O=C(N[C@H]1CN2CCC1CC2)c1ccc(Cl)cc1	inactive: 2.3

More results.

Row | SMILES | cell-cell fusion (z-score)
21 | CCOC(=O)C(C)(C)Oc1ccc(Cl)cc1 | inactive: 2.64
22 | CCOC(=O)C(C)(C)Oc1ccc(Cl)cc1 [Clofibrate] | inactive: 0.213
23 | CN(C)CCCOc1nn(Cc2ccccc2)c2ccccc12.Cl | inactive: 2.52
24 | Cn1c(=O)c2[nH]cnc2n(C)c1=O | inactive: 2.01
25 | C[C@@H]1CC2C3C[C@H](F)C4=CC(=O)C=C[C@]4(C)[C@@]3(F)[C@@H](O)C[C@]2(C)[C@@]1(O)C(=O)CO (some centres undefined) | inactive: 1.25
26 | O=S(=O)([O-])c1cc(I)c(O)c2ncccc12.[Na+] | inactive: 0.679
27 | C#C[C@]1(O)CC[C@H]2[C@@H]3CCC4=CC(=O)CC[C@@H]4[C@H]3C(=C)C[C@@]21CC [Etonogestrel] | inactive: 1.86
28 | CC[C@@H]1/C=C(\C)C[C@H](C)C[C@H](OC)[C@H]2O[C@@](O)(C(=O)C(=O)N3CCCC[C@H]3C(=O)O[C@H](/C(C)=C/[C@@H]3CC[C@H](Cl)[C@H](OC)C3)[C@H](C)[C@@H](O)CC1=O)[C@H](C)C[C@@H]2OC [Pimecrolimus] | active: -4.63
29 | COc1cc2c(cc1OC)C1C(=O)c3c(O)cc4c(c3OC1CO2)C=CC(C)(C)O4 (stereo not drawn) [alpha-TOXICAROL (dl)] | inactive: 1.96
30 | CC(CO)NC(=O)C1C=C2c3cccc4[nH]cc(c34)C[C@H]2N(C)C1.O=C(O)/C=C\C(=O)O (some centres undefined) | inactive: -1.64
31 | COC(=O)C1=C(C)NC(C)=C(C(=O)OCCN(C)Cc2ccccc2)C1c1cccc([N+](=O)[O-])c1.Cl (centres undefined) | inactive: 4.45
32 | COC(=O)C1=C(C)NC(C)=C(C(=O)OCCN(C)Cc2ccccc2)C1c1cccc([N+](=O)[O-])c1.Cl (centres undefined) [Nicardipine hydrochloride] | inactive: 3.1
33 | CNC(=O)c1ccc(-c2cnc3ncc(Cc4ccc5ncccc5c4)n3n2)cc1F | inactive: 1.43
34 | O=C1c2ccccc2C(=O)C1c1ccccc1 | inactive: 1.9
35 | CNC(C)C(O)c1ccccc1.Cl (centres undefined) | inactive: 0.279
36 | NC(=O)N/N=C/c1ccc([N+](=O)[O-])o1 | inactive: 1.9
37 | CNC(=O)c1cc(Oc2ccc(NC(=O)Nc3ccc(Cl)c(C(F)(F)F)c3)cc2)ccn1.Cc1ccc(S(=O)(=O)O)cc1 [Sorafenib tosylate] | inactive: 1.65
38 | CCN[C@@H]1C[C@H](N)[C@@H](O[C@H]2OC(CN)=CC[C@H]2N)[C@H](O)[C@H]1O[C@H]1OC[C@](C)(O)[C@H](NC)[C@H]1O.CCN[C@@H]1C[C@H](N)[C@@H](O[C@H]2OC(CN)=CC[C@H]2N)[C@H](O)[C@H]1O[C@H]1OC[C@](C)(O)[C@H](NC)[C@H]1O.O=S(=O)(O)O.O=S(=O)(O)O.O=S(=O)(O)O.O=S(=O)(O)O.O=S(=O)(O)O [Netilmicin sulfate] | inactive: 0.825
39 | COc1nc2ccc(Br)cc2cc1[C@@H](c1ccccc1)[C@@](O)(CCN(C)C)c1cccc2ccccc12 [Bedaquiline] | inactive: 0.0102
